No constants are given. Whether binding was seen depends on the method and setting. For some of these results: Binding seen in cells or lysates may run through a third protein. For some of these results: Binding calls can cover weak binding; strength is not graded here. Tags and fused reporters may be left off the sequences shown. One block for each substance: values may come before it.
Columns and labels:
[1] = molecular target: T1, D3 (BiFC fusion from pXY106) (rice (Oryza sativa)) (UniProt Q5VMP0); test: split reporter; BiFC; Agrobacterium-infiltrated young leaves of Nicotiana benthamiana; YFP fluorescence by confocal microscopy
T1 sequence: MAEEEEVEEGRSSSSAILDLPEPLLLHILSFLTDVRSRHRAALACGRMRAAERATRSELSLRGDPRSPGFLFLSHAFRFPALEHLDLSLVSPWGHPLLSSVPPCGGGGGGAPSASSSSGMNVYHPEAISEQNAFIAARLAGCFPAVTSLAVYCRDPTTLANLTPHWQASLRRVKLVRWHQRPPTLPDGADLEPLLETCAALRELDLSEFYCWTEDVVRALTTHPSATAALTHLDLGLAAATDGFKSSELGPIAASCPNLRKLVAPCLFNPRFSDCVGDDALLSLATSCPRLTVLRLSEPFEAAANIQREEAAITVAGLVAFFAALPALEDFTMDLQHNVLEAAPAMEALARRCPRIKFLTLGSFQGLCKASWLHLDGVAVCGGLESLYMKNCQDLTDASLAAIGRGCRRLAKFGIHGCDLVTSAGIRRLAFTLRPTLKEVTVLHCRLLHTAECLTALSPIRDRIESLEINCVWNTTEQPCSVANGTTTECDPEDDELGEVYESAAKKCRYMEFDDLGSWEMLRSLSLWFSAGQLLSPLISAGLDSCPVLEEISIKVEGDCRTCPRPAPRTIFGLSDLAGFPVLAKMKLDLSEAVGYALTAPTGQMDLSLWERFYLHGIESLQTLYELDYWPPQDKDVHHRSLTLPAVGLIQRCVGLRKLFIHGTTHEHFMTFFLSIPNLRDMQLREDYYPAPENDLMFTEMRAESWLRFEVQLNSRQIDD

[2] = molecular target: T2, D3 (yeast two-hybrid fusion in pDBLeu) (rice (Oryza sativa)) (UniProt Q5VMP0); test: two-hybrid; yeast strain AH109; pAD502 and pDBLeu fusions; growth on SD medium lacking Leu, Trp and His
T2 sequence: T1 sequence

[3] = molecular target: T3, GST-D3 (rice (Oryza sativa)) (UniProt Q5VMP0); test: pull-down; modified pull-down: MBP-CYC U2s preincubated with OsGSK2-HIS or OsGSK2^K69R-HIS for 1 h at 37 °C in kinase assay buffer (50 mM Tris-HCl pH 7.4, 10 mM MgCl2, 1 mM DTT, 100 μM ATP), then incubated with D3-GST beads; blot with anti-MBP; both purified
T3 sequence: T1 sequence

[4] = molecular target: T3, GST-D3 (rice (Oryza sativa)); test: pull-down; GST or D3-GST-coupled beads incubated with MBP-CYC U2 for 3 h at 4 °C; blot with anti-MBP; both purified

binding [1]: binds
Substance: CYC U2 (BiFC fusion from pXY104) (rice (Oryza sativa))

binding [2]: no binding
Substance: CYC U2 (yeast two-hybrid fusion in pAD502) (rice (Oryza sativa))

binding [3]: no binding
binding [4]: no binding
Substance: MBP-CYC U2 (unphosphorylated) (rice (Oryza sativa))
